# Some of the results follow.
# B1: RetS (Pseudomonas aeruginosa), Q9HUV7 (protein)
# chain: MVRLRIAIGLLVSFLLLLLGPMSPAVADDAGVSSVPLQTTATTPSANQNWRLLRDESAQLRIADVLQRKEQFRPLAKRSFIFPASPQAVWLQVQLPAQKVPSWLWIFAPRVQYLDYYLVQDGQLVRDQHTGESRPFQERPLPSRSYLFSLPVDGKPMTLYVRMTSNHPLMAWFDQIDEAGLVGLEKPAYAFGMLLGGMLLLLMYNLIRFAYSRSASSLWLAAVHAALAVCAAANLGLVAFWLPGLKFNQSLTADLGALGAAVSLLWFACSFFRGTAESRLNRLLQGEALLILAVGAIIAFTQQLWFSWLIYLLVILSSLSVPLIAAWHWYRGYQPARLIVAGMIVFNAGFMVFLPVLFGTKQLDPGWLVLGVFSFATLAGLVLSVSLTERQRLIQQLNLQQRTSEAAHTAELQTKAEFLAKISHEIRTPMNGVLGMTELLLGTPLSAKQRDYVQTIHSAGNELLTLINEILDISKLESGQIELDEVQFDLNALIEDCLDIFRVKAEQQRIELISFTQPQVPRVIGGDPTRLRQVVLSLLDNAFKQTEEGEILLVVALDDQGETPRLRIAVQDSGHPFDAKEREALLTAELHSGDFLSASKLGSHLGLIIARQLVRLMGGEFGIQSGSSQGTTLSLTLPLDPQQLENPTADLDGPLQGARLLVVDDNETCRKVLVQQCSGWGLNVSAVSSGKEALAQLRTKAHLREYFDVVLLDQDMPGMTGMQLAAKIKEDPNLNHDILLIMLTGISNAPSKIIARNAGIKRILAKPVAGYTLKATLADELAQRGVSGVTNYLQPAKEAQAPSLPSDFRILVAEDNSISTKVIRGMLNKLNLQPDTASNGQEALSAMKATQYDLVLMDCEMPVLDGFSATEQLRAWEAHEQRPHTPVVALTAHILSEHKERARLVGMDGHMAKPVELSQLRELIAYWVGERDRRRQGDALPS
# Experiments:
# Experiment in all cases: glycan array binding signal (z-score within array); higher = stronger binding
# Settings in all cases: glycan notation: IUPAC condensed, linker removed
# GlcNAc(b1-3)Gal(b1-4)Glc = target: GlcNAc(b1-3)Gal(b1-4)Glc
# How it was run: (§1)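 Glycan array data came from 3228 arrays in the Consortium for Functional Glycomics database, and only arrays with an available protein sequence were kept. Glycan names were put into IUPAC-condensed notation, and columns mapping to the same glycan were averaged. The binding signal is a within-array Z-score, averaged across arrays of one protein sequence run at different concentrations or buffers and across linkers. A negative Z-score can be read as non-binding.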
# [1] = target: GlcNAc(b1-3)Gal(b1-4)GlcNAc
# How it was run: as §1
# [2] = target: GlcNAc(b1-3)Gal(b1-4)GlcNAc(b1-3)Gal(b1-4)GlcNAc
# How it was run: as §1
# GlcNAc(b1-3)GalNAc = target: GlcNAc(b1-3)GalNAc
# How it was run: as §1
# GlcNAc(b1-3)Man = target: GlcNAc(b1-3)Man
# How it was run: as §1
# [3] = target: GlcNAc(b1-3)[GlcNAc(b1-4)][GlcNAc(b1-6)]GlcNAc
# How it was run: as §1
# [4] = target: GlcNAc(b1-3)[GlcNAc(b1-6)]Gal(b1-4)GlcNAc
# How it was run: as §1
# [5] = target: GlcNAc(b1-3)[GlcNAc(b1-6)]GalNAc
# How it was run: as §1
# [6] = target: GlcNAc(b1-4)Gal(b1-4)GlcNAc
# How it was run: as §1
# GlcNAc(b1-4)GlcNAc = target: GlcNAc(b1-4)GlcNAc
# How it was run: as §1
# [7] = target: GlcNAc(b1-4)GlcNAc(b1-4)GlcNAc
# How it was run: as §1
# [8] = target: GlcNAc(b1-4)GlcNAc(b1-4)GlcNAc(b1-4)GlcNAc(b1-4)GlcNAc
# How it was run: as §1
# [9] = target: GlcNAc(b1-4)GlcNAc(b1-4)GlcNAc(b1-4)GlcNAc(b1-4)GlcNAc(b1-4)GlcNAc
# How it was run: as §1
# [10] = target: GlcNAc(b1-4)[GlcNAc(b1-6)]GalNAc
# How it was run: as §1
# [11] = target: GlcNAc(b1-6)Gal(b1-4)GlcNAc
# How it was run: as §1
# GlcNAc(b1-6)GalNAc = target: GlcNAc(b1-6)GalNAc
# How it was run: as §1
# GlcNAc3Prop(b1-4)GlcNAc = target: GlcNAc3Prop(b1-4)GlcNAc
# How it was run: as §1
# [12] = target: GlcNAc6S(b1-3)Gal(b1-4)GlcNAc
# How it was run: as §1
# Kdn(a2-3)Gal(b1-3)GalNAc = target: Kdn(a2-3)Gal(b1-3)GalNAc
# How it was run: as §1
# Kdn(a2-3)Gal(b1-3)GlcNAc = target: Kdn(a2-3)Gal(b1-3)GlcNAc
# How it was run: as §1
# Kdn(a2-3)Gal(b1-4)Glc = target: Kdn(a2-3)Gal(b1-4)Glc
# How it was run: as §1
# Kdn(a2-3)Gal(b1-4)GlcNAc = target: Kdn(a2-3)Gal(b1-4)GlcNAc
# How it was run: as §1
# [13] = target: Kdn(a2-3)Gal(b1-4)[Fuc(a1-3)]GlcNAc
# How it was run: as §1
# Kdn(a2-6)Gal(b1-4)GlcNAc = target: Kdn(a2-6)Gal(b1-4)GlcNAc
# How it was run: as §1
# [14] = target: Man(a1-2)Man(a1-2)Man(a1-3)Man
# How it was run: as §1
# [15] = target: Man(a1-2)Man(a1-2)Man(a1-6)[Man(a1-3)]Man
# How it was run: as §1
# Man(a1-2)Man(a1-3)Man = target: Man(a1-2)Man(a1-3)Man
# How it was run: as §1
# [16] = target: Man(a1-2)Man(a1-3)[Man(a1-2)Man(a1-6)]Man
# How it was run: as §1
# [17] = target: Man(a1-2)Man(a1-3)[Man(a1-2)Man(a1-6)]Man(a1-6)[Man(a1-2)Man(a1-2)Man(a1-3)]Man
# How it was run: as §1
# [18] = target: Man(a1-2)Man(a1-3)[Man(a1-2)Man(a1-6)]Man(a1-6)[Man(a1-2)Man(a1-2)Man(a1-3)]Man(b1-4)GlcNAc(b1-4)GlcNAc
# How it was run: as §1
binder,measurement,setting,value
B1,glycan array binding signal (z-score),GlcNAc(b1-3)Gal(b1-4)Glc,2.75
same,glycan array binding signal (z-score),[1],-0.607
same,glycan array binding signal (z-score),[2],-0.992
same,glycan array binding signal (z-score),GlcNAc(b1-3)GalNAc,-0.143
same,glycan array binding signal (z-score),GlcNAc(b1-3)Man,-0.263
same,glycan array binding signal (z-score),[3],-0.724
same,glycan array binding signal (z-score),[4],0.412
same,glycan array binding signal (z-score),[5],-0.56
same,glycan array binding signal (z-score),[6],-0.862
same,glycan array binding signal (z-score),GlcNAc(b1-4)GlcNAc,-0.501
same,glycan array binding signal (z-score),[7],-1.57
same,glycan array binding signal (z-score),[8],-0.702
same,glycan array binding signal (z-score),[9],0.22
same,glycan array binding signal (z-score),[10],1.11
same,glycan array binding signal (z-score),[11],-0.028
same,glycan array binding signal (z-score),GlcNAc(b1-6)GalNAc,-0.463
same,glycan array binding signal (z-score),GlcNAc3Prop(b1-4)GlcNAc,-0.222
same,glycan array binding signal (z-score),[12],-0.899
same,glycan array binding signal (z-score),Kdn(a2-3)Gal(b1-3)GalNAc,-1.13
same,glycan array binding signal (z-score),Kdn(a2-3)Gal(b1-3)GlcNAc,-0.528
same,glycan array binding signal (z-score),Kdn(a2-3)Gal(b1-4)Glc,-0.793
same,glycan array binding signal (z-score),Kdn(a2-3)Gal(b1-4)GlcNAc,-1.53
same,glycan array binding signal (z-score),[13],-1.35
same,glycan array binding signal (z-score),Kdn(a2-6)Gal(b1-4)GlcNAc,0.579
same,glycan array binding signal (z-score),[14],0.185
same,glycan array binding signal (z-score),[15],-0.219
same,glycan array binding signal (z-score),Man(a1-2)Man(a1-3)Man,-1.17
same,glycan array binding signal (z-score),[16],1.24
same,glycan array binding signal (z-score),[17],0.352
same,glycan array binding signal (z-score),[18],-0.741

# A different layout for some results above.
binder | measurement | setting | value
B1 | glycan array binding signal (z-score) | GlcNAc(b1-3)Gal(b1-4)Glc | 2.75
same | glycan array binding signal (z-score) | [1] | -0.607
